Paper PMC5603589
These are yes or no findings as the source states them, for the method shown. In cells and extracts the contact can be indirect. Some results given as binding are weak or reduced against the parent protein; the word gives no strength.

The chains behind the UniProt entries cited, without tags or fusion partners.
UniProt P31749: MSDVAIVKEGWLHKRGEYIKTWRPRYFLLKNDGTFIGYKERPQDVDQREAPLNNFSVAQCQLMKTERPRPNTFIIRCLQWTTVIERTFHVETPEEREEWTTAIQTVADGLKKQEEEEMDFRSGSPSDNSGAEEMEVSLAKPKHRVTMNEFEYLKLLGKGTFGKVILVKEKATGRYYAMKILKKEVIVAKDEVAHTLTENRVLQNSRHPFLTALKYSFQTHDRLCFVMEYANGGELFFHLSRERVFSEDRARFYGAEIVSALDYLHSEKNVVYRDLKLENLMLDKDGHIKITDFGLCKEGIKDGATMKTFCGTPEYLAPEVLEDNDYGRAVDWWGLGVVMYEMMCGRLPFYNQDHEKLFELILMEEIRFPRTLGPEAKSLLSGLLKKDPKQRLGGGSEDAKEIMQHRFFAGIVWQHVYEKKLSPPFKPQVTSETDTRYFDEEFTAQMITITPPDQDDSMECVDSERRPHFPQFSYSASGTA

Target: T1, Palladin (PALLD), endogenous (human (endogenous in HeLa)) (UniProt Q8WX93)
T1 sequence: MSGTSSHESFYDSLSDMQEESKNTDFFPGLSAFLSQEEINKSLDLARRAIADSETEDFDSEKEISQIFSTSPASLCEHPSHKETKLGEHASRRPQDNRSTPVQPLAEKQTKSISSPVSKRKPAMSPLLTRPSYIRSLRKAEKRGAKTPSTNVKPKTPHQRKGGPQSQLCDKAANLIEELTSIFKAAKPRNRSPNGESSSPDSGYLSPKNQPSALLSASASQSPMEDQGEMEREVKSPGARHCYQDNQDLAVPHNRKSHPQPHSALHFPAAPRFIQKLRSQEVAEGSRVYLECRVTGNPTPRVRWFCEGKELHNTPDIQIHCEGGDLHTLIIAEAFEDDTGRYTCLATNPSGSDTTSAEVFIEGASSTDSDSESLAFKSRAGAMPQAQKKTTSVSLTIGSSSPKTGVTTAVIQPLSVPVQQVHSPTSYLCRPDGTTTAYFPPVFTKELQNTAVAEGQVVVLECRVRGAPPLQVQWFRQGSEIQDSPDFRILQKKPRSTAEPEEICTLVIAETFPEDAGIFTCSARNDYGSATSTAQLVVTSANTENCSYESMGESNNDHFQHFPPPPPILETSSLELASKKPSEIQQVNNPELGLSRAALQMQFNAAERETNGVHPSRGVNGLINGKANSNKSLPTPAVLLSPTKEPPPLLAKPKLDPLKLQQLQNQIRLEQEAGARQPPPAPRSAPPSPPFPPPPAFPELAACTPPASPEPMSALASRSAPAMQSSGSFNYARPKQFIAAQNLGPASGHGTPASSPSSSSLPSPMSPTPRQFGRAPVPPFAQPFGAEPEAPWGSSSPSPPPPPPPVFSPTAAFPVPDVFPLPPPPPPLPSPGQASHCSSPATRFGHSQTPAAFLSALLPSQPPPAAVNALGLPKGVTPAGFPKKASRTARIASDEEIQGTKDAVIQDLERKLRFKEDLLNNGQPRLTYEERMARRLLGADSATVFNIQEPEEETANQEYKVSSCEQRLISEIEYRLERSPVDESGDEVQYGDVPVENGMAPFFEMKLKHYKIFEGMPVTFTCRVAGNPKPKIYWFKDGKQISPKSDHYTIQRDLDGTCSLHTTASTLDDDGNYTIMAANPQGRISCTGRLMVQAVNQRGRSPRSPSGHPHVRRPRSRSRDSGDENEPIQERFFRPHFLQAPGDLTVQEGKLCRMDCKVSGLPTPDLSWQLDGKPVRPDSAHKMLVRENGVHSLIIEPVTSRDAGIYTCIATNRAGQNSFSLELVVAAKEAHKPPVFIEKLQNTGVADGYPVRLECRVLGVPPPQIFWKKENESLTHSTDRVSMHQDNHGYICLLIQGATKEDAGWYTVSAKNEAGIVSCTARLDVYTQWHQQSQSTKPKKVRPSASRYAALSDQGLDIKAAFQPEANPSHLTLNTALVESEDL
Assay: co-IP; endogenous proteins in HeLa lysate (mitotic HeLa cells for AKT1); 50 mM Tris-HCl pH 7.4, 150 mM NaCl, 1 mM EDTA, 1% Triton X-100; primary antibody 6 h at 4 °C, protein A/G agarose; Western blot

binding: binds
Substance: AKT1 in HeLa cells (from UniProt P31749 1-480) (enzyme)
